No constants are given. Whether binding was seen depends on the method and setting. In cells and extracts the contact can be indirect. Some binding calls cover weakened binding; strength is not graded here. For part of these data: Tags and fused reporters may be left off the sequences shown.
How the values were obtained:
Test in all cases: co-IP
HA-tagged YWHAG (human) = biological target: T1, HA-tagged YWHAG (human) (UniProt P61981)
T1 sequence: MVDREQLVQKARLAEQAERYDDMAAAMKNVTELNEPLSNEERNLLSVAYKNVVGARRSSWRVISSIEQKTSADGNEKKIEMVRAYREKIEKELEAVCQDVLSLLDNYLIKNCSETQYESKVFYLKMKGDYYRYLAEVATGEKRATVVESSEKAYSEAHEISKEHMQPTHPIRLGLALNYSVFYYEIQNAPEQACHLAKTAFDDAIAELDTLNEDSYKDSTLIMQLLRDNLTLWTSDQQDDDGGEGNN

By UniProt entry, the sequences of proteins in these tests, tags left out.
UniProt P06821: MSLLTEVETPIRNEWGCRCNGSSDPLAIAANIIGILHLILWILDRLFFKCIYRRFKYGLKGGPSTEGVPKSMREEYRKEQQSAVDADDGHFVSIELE

[1] = biological target: HA-tagged M2 (influenza A virus matrix protein 2, A/Puerto Rico/8/34 H1N1) (influenza A virus A/Puerto Rico/8/34 H1N1 (PR8)) (UniProt P06821)
[2] = biological target: M2 of influenza A virus in infected cells (influenza A virus (strain not stated for this experiment)) (UniProt P06821)

Molecule: Flag-tagged M2 (influenza A virus matrix protein 2, A/Puerto Rico/8/34 H1N1) (from UniProt P06821 1-97)
- binding (HA-tagged YWHAG (human)): binds

B1: Flag-tagged YWHAG (tyrosine 3-monooxygenase/tryptophan 5-monooxygenase activation protein gamma) (protein, UniProt P61981 1-247)
chain: T1 sequence
- binding [1]: binds

B2: endogenous YWHAG (protein, UniProt P61981 1-247)
chain: T1 sequence
- binding [2]: binds

Source: article PMC9343881
